# Laboratory results reported in paper PMC7106964.
# Amino acid sequences for entries named in this document (tags omitted).
# UniProt Q92993: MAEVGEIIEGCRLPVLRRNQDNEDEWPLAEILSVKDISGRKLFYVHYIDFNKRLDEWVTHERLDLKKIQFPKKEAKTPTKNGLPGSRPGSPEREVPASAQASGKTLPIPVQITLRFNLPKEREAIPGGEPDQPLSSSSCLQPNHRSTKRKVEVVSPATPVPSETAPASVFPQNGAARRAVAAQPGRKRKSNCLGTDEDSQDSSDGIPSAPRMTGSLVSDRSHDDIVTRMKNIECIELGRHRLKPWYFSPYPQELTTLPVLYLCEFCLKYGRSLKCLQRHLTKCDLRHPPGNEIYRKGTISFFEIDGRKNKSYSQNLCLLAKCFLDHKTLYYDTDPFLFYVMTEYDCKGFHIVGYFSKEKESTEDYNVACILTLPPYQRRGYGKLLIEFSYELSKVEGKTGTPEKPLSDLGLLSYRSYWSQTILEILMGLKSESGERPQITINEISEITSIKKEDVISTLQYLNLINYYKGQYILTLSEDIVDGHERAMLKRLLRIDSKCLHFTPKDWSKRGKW
# No constants are given. Whether binding was seen depends on the method and setting. In cells and extracts the contact can be indirect. Some binding calls cover weakened binding; strength is not graded here. For some assays here: Where a sequence is shown, tags or fusion partners need not be part of it.
# B1: RNF8 (construct not named for the experiment) (protein, UniProt O76064 1-485)
# chain: MGEPGFFVTGDRAGGRSWCLRRVGMSAGWLLLEDGCEVTVGRGFGVTYQLVSKICPLMISRNHCVLKQNPEGQWTIMDNKSLNGVWLNRARLEPLRVYSIHQGDYIQLGVPLENKENAEYEYEVTEEDWETIYPCLSPKNDQMIEKNKELRTKRKFSLDELAGPGAEGPSNLKSKINKVSCESGQPVKSQGKGEVASTPSDNLDPKLTALEPSKTTGAPIYPGFPKVTEVHHEQKASNSSASQRSLQMFKVTMSRILRLKIQMQEKHEAVMNVKKQTQKGNSKKVVQMEQELQDLQSQLCAEQAQQQARVEQLEKTFQEEEQHLQGLEIAQGEKDLKQQLAQALQEHWALMEELNRSKKDFEAIIQAKNKELEQTKEEKEKMQAQKEEVLSHMNDVLENELQCIICSEYFIEAVTLNCAHSFCSYCINEWMKRKIECPICRKDIKSKTYSLVLDNCINKMVNNLSSEVKERRIVLIRERKAKRLF
# B2: HA‐RNF8 (protein, UniProt O76064 1-485)
# chain: B1 chain
# B3: RNF8 (endogenously expressed) (protein, UniProt O76064 1-485)
# chain: B1 chain
# B4: GFP‐tagged RNF8 (protein, UniProt O76064 1-485)
# chain: B1 chain
# Columns and labels:
# [1] = biological target: Tip60 (construct not named for the co-IP) (human) (UniProt Q92993); test: co-IP; HEK-293T whole cell lysates in RIPA buffer, antibody 3 h at 4°C, then protein A/G Sepharose 3 h, immunoblot; cells with or without Eto or CPT; in Figure 6D with or without overexpressed RNF8
# [2] = biological target: p53 (construct not named for the co-IP) (human) (UniProt P04637); test: as above
# [3] = biological target: Flag‐Tip60 (human) (UniProt Q92993); test: proximity ligation; U2OS cells transfected 48 h with the indicated plasmids, fixed, Duolink in situ PLA with probes against HA and Flag; in Figure 6E with overexpressed RNF8
# [4] = biological target: Tip60 (endogenously expressed) (human (endogenous in U2OS)) (UniProt Q92993); test: proximity ligation; in situ PLA of endogenously expressed proteins (Figure S8A)
# [5] = biological target: GST‐p53 (human) (UniProt P04637); test: pull-down; beads coated with GST or GST-p53 incubated 3 h with RIPA lysate of HEK-293T cells expressing GFP-RNF8; anti-GFP immunoblot; only the target purified
binder,measurement,setting,value
B1,binding,[1],binds
same,binding,[2],binds
B2,binding,[3],binds
B3,binding,[4],binds
B4,binding,[5],binds
